{"source": "patent US10662210B2", "about": "“Compositions and methods comprising osmium for the treatment of cancers” (Massachusetts Institute of Technology, priority 2014, dated 2020)", "system": "A2780 cells", "test": "Cellular uptake, cytoplasm/nucleus/membrane fractions", "type": "cell-based, human", "conditions": "10 μM, 12 h", "data": [{"smiles": "[N]#[Os]1([Cl])([Cl])([Cl])[N]2C=CC(c3ccccc3)=c3ccc4c(c32)[N]1C=CC=4c1ccccc1", "note": "[Complex 4, OsN(4,7-diphenyl-1,10-phenanthroline)Cl3]", "values": [{"measurement": "cytoplasm level relative to nucleus", "value": 12, "unit": "fold"}, {"measurement": "intracellular localization", "value": "predominantly found in the cytoplasm"}]}, {"smiles": "[N]#[Os]1([Cl])([Cl])([Cl])[N]2C=CC=c3ccc4c(c32)[N]1C=CC=4", "note": "[Complex 2, OsN(1,10-phenanthroline)Cl3]", "values": [{"measurement": "intracellular localization", "value": "localized essentially evenly between the nucleus and cytoplasm"}]}]}
